Test results from publication PMC12666738.
Where two headings read alike, the source gives them in different places. These are yes or no findings as the source states them, for the method shown. Binding seen in cells or lysates may run through a third protein. For some assays here: Binding calls can cover weak binding; strength is not graded here. For some assays here: Where a sequence is shown, tags or fusion partners need not be part of it. Values belong to the molecule of their own block, whether it stands above or below them.

The chains behind the UniProt entries cited, without tags or fusion partners. Where a name states a change or a piece, a line headed by the entry shows the natural chain unless it says otherwise. Residues count along the entry.
UniProt O14936: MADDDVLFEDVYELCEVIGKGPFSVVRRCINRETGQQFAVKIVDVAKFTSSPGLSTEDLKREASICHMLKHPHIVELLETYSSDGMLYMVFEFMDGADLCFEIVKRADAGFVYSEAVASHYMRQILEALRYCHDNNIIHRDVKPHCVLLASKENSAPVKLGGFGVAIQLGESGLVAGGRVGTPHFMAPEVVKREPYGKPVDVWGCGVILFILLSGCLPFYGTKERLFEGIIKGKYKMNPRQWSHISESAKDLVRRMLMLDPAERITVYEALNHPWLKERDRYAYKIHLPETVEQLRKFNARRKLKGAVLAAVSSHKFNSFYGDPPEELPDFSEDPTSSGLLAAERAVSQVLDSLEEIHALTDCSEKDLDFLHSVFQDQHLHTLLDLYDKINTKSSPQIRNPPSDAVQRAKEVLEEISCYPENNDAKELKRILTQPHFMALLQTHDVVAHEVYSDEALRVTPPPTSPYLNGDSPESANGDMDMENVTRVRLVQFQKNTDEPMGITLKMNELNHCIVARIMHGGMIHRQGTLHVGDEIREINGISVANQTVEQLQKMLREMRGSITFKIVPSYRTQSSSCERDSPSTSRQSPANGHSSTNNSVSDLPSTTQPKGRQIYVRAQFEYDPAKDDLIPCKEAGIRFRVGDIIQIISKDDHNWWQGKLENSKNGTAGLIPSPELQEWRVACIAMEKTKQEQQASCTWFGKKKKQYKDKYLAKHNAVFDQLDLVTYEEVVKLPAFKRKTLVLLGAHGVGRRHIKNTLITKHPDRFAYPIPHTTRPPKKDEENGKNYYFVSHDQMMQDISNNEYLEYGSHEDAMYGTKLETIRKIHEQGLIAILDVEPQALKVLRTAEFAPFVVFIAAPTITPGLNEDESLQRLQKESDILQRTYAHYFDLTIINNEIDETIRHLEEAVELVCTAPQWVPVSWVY
UniProt O75334: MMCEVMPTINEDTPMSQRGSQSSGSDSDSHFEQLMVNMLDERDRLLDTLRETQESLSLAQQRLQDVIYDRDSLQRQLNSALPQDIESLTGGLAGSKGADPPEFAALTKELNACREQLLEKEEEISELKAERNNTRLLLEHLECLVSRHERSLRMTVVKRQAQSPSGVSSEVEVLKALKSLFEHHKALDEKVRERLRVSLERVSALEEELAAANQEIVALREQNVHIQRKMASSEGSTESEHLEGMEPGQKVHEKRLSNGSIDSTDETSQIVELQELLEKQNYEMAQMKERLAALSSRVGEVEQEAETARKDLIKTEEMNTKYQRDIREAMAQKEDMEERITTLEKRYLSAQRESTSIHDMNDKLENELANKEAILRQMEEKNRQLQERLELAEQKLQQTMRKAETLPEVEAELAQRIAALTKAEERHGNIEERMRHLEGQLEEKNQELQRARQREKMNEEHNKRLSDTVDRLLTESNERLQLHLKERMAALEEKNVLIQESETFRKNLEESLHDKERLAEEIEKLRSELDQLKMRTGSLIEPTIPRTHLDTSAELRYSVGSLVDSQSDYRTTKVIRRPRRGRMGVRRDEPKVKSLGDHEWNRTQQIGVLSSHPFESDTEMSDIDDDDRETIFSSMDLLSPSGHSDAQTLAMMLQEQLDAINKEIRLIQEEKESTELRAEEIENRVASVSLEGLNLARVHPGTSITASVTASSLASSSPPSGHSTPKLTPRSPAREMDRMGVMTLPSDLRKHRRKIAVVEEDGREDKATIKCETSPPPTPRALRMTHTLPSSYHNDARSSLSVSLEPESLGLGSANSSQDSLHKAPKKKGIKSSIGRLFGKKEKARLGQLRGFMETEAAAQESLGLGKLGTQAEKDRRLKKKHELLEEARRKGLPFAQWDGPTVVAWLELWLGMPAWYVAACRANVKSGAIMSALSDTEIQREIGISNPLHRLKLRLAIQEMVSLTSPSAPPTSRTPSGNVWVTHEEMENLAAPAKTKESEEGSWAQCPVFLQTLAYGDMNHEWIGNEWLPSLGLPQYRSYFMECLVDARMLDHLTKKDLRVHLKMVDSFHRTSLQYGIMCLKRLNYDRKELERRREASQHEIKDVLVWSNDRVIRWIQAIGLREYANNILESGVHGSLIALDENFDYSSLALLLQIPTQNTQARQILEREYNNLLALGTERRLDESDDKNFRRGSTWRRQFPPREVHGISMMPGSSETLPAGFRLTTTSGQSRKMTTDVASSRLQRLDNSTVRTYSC
UniProt Q63373, residues 47-468: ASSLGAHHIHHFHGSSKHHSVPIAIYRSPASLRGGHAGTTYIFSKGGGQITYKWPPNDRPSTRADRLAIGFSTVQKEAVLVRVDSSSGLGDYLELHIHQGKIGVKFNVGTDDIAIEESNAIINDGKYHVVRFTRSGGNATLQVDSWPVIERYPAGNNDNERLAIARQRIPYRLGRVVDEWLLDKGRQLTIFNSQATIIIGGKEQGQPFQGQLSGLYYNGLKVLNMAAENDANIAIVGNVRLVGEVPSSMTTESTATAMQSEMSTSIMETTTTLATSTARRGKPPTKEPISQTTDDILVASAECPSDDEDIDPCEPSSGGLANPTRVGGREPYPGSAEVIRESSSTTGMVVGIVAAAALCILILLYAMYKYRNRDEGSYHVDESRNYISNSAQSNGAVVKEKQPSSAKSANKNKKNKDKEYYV

Experiments:
Test in all cases: co-IP; HEK293T cells cotransfected, lysed in RIPA buffer 24 h after transfection; mRFP-tagged CASK precipitated with magnetic RFP-Trap beads, 2 h at 4°C, five washes in RIPA; Western blot
[1] = biological target: mRFP-tagged CASK I672V (human) (UniProt O14936)
[2] = biological target: mRFP-tagged CASK P673L (human) (UniProt O14936)
[3] = biological target: mRFP-tagged CASK D624E/P625L (human) (UniProt O14936)
[4] = biological target: mRFP-tagged CASK G521V (human) (UniProt O14936)
[5] = biological target: mRFP-tagged CASK L354P (human) (UniProt O14936)
[6] = biological target: mRFP-tagged CASK W680S (human) (UniProt O14936)
[7] = biological target: mRFP-tagged CASK Y723C (human) (UniProt O14936)
[8] = biological target: mRFP-tagged CASK L354P (human) (UniProt O14936); remark: listed apart in the source
[9] = biological target: mRFP-tagged CASK P673L (human) (UniProt O14936); remark: listed apart in the source
[10] = biological target: mRFP-tagged CASK Y723C (human) (UniProt O14936); remark: listed apart in the source

binding [1]: binds
binding [2]: binds
Molecule: HA-tagged Liprin-α2 (from UniProt O75334 1-1257)

binding [3]: no binding
binding [4]: no binding
binding [5]: binds
binding [2]: no binding
binding [6]: binds
binding [7]: no binding
Molecule: HA-tagged Neurexin-1β (from UniProt Q63373 47-468)

binding [8]: binds
binding [9]: no binding
binding [10]: no binding
B1: FLAG-tagged CNTNAP2 (contactin associated protein 2) (protein, UniProt Q9UHC6 28-1331)
chain: APSTSQKCDEPLVSGLPHVAFSSSSSISGSYSPGYAKINKRGGAGGWSPSDSDHYQWLQVDFGNRKQISAIATQGRYSSSDWVTQYRMLYSDTGRNWKPYHQDGNIWAFPGNINSDGVVRHELQHPIIARYVRIVPLDWNGEGRIGLRIEVYGCSYWADVINFDGHVVLPYRFRNKKMKTLKDVIALNFKTSESEGVILHGEGQQGDYITLELKKAKLVLSLNLGSNQLGPIYGHTSVMTGSLLDDHHWHSVVIERQGRSINLTLDRSMQHFRTNGEFDYLDLDYEITFGGIPFSGKPSSSSRKNFKGCMESINYNGVNITDLARRKKLEPSNVGNLSFSCVEPYTVPVFFNATSYLEVPGRLNQDLFSVSFQFRTWNPNGLLVFSHFADNLGNVEIDLTESKVGVHINITQTKMSQIDISSGSGLNDGQWHEVRFLAKENFAILTIDGDEASAVRTNSPLQVKTGEKYFFGGFLNQMNNSSHSVLQPSFQGCMQLIQVDDQLVNLYEVAQRKPGSFANVSIDMCAIIDRCVPNHCEHGGKCSQTWDSFKCTCDETGYSGATCHNSIYEPSCEAYKHLGQTSNYYWIDPDGSGPLGPLKVYCNMTEDKVWTIVSHDLQMQTPVVGYNPEKYSVTQLVYSASMDQISAITDSAEYCEQYVSYFCKMSRLLNTPDGSPYTWWVGKANEKHYYWGGSGPGIQKCACGIERNCTDPKYYCNCDADYKQWRKDAGFLSYKDHLPVSQVVVGDTDRQGSEAKLSVGPLRCQGDRNYWNAASFPNPSSYLHFSTFQGETSADISFYFKTLTPWGVFLENMGKEDFIKLELKSATEVSFSFDVGNGPVEIVVRSPTPLNDDQWHRVTAERNVKQASLQVDRLPQQIRKAPTEGHTRLELYSQLFVGGAGGQQGFLGCIRSLRMNGVTLDLEERAKVTSGFISGCSGHCTSYGTNCENGGKCLERYHGYSCDCSNTAYDGTFCNKDVGAFFEEGMWLRYNFQAPATNARDSSSRVDNAPDQQNSHPDLAQEEIRFSFSTTKAPCILLYISSFTTDFLAVLVKPTGSLQIRYNLGGTREPYNIDVDHRNMANGQPHSVNITRHEKTIFLKLDHYPSVSYHLPSSSDTLFNSPKSLFLGKVIETGKIDQEIHKYNTPGFTGCLSRVQFNQIAPLKAALRQTNASAHVHIQGELVESNCGASPLTLSPMSSATDPWHLDHLDSASADFPYNPGQGQAIRNGVNRNSAIIGGVIAVVIFTILCTLVFLIRYMFRHKGTYHTNEAKGAESAESADAAIMNNDPNFTETIDESKKEWLI
